Measured values reported in PubChem BioAssay AID624405 (Broad Institute, 2012).
The whole screen tested about 1,900 compounds, of which about 250 (13%) were called active. Roughly 4% stayed inconclusive and do not appear here.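 The calls were made as follows: active = fitted curve reaches 40% rescue activity at or below the top valid dose, in every test run; inconclusive = test runs disagree, some active and some inactive; inactive = every run misses the threshold or moves the wrong way.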 The list shows a part of the results, in another mix than the full data. Results with a measured potency or affinity are listed apart.

Test: suppressors of statin myotoxicity in myotubes, dose response, cell-based, C2C12 myotubes, ATP luminescence, cherry pick (AID 624405);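 also: myotubes are challenged with simvastatin at 10 µM to lower ATP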
Details: C2C12 myotubes + simvastatin, 48 h, scaled: DMSO wells 0, geranylgeraniol wells 100; at 19.5 µM (top of the series) unless noted
In the case of `COc1ccc(S(=O)(=O)Nc2ccc3c(c2)CC(=O)N([C@H](C)CO)C[C@H](C)[C@@H](CN(C)Cc2ccc(Oc4ccccc4)cc2)O3)cc1`, the rescue activity (ATP increase) is reported as inactive: 8.31%.
With `CCSc1nc2sc3c(c2c(=O)n1-c1ccc(OC)cc1)CCN(C)C3` the rescue activity (ATP increase) was inactive: 40.1%.
With `CCOc1ccc(NC(=O)CN(c2ccc(OC)cc2)S(C)(=O)=O)cc1` the rescue activity (ATP increase) was inactive: 7.25%.
With `Cn1c2c(c(=O)n(C)c1=O)CN(Cc1ccc3c(c1)OCO3)CN2` the rescue activity (ATP increase) was inactive: 38.8%.
For `C[C@@H]1CN([C@@H](C)CO)C(=O)c2cc(NS(C)(=O)=O)ccc2O[C@@H](C)CCCCO[C@H]1CN(C)S(=O)(=O)c1ccc(Cl)cc1`, the rescue activity (ATP increase) was inactive: -2.63%.
For `O=S(=O)(NCc1csc(-c2cccs2)n1)c1cccc(C(F)(F)F)c1`, the rescue activity (ATP increase) was inactive: 12.9%.
For `CCOc1ncnc2c1[nH]c1ccccc12`, the rescue activity (ATP increase) was inactive: 13.5%.
For `C[C@@H]1CCCCO[C@H](CN(C)S(=O)(=O)c2ccc(Cl)cc2)[C@H](C)CN([C@@H](C)CO)C(=O)c2cc(NS(C)(=O)=O)ccc2O1`, the rescue activity (ATP increase) was inactive: 20.4%.
For `C[C@@H]1CN([C@H](C)CO)C(=O)c2cccc(NC(=O)c3ccc(-c4nccs4)cc3)c2O[C@@H]1CN(C)C(=O)Nc1ccc(F)cc1`, the rescue activity (ATP increase) was inactive: 7.97%.
In the case of `C[C@H]1CCCCO[C@H](CN(C)CC2CCCCC2)[C@@H](C)CN([C@@H](C)CO)C(=O)c2cc(NC(=O)Nc3ccc4c(c3)OCO4)ccc2O1`, the rescue activity (ATP increase) is reported as inactive: -25.4%.
For `CCC(C)[C@H]1COCCS(=O)(=O)N1Cc1ccc(Br)cc1` (stereo not given in full), the rescue activity (ATP increase) was inactive: 3.79%.
In the case of `Nn1c(SCC(=O)N2CCN(S(=O)(=O)c3ccccc3)CC2)nnc1-c1cccs1`, the rescue activity (ATP increase) is reported as inactive: -6.28%.
In the case of `O=C1CC(c2cccs2)c2cc3c(cc2N1)OCO3` (stereo not given), the rescue activity (ATP increase) is reported as inactive: 19.6%.
For `C[C@H]1CN([C@@H](C)CO)C(=O)Cc2cc(NC(=O)Nc3ccc4c(c3)OCO4)ccc2O[C@@H]1CN(C)Cc1ccc(Cl)c(Cl)c1`, the rescue activity (ATP increase) was inactive: 17.4%.
For `O=C(C[C@@H]1CC[C@@H]2[C@H](COC[C@H](O)CN2C(=O)c2cc(Cl)cc(Cl)c2)O1)N1CCc2ccccc2C1`, the rescue activity (ATP increase) was inactive: 6.86% [at 10 µM].
For `C[C@@H]1CCCCO[C@@H](CN(C)S(=O)(=O)c2cccs2)[C@H](C)CN([C@@H](C)CO)C(=O)c2cc(NC(=O)Nc3ccc(F)cc3)ccc2O1`, the rescue activity (ATP increase) was inactive: 4.48%.
With `CN1C[C@@H]2[C@H](c3ccccc31)[C@@H](CO)N2Cc1ccccc1Cl` the rescue activity (ATP increase) was inactive: -13%.
With `COc1ccc(NC(=O)N(C)C[C@H]2Oc3c(NC(=O)Nc4cccc5ccccc45)cccc3C(=O)N([C@H](C)CO)C[C@@H]2C)cc1` the rescue activity (ATP increase) was inactive: -0.819%.
With `COc1ccc(-n2nc3cc(C)c(N)c(Br)c3n2)cc1` the rescue activity (ATP increase) was inactive: 2.51%.
With `Nc1nc(NCc2c(F)cccc2Cl)nn1-c1ccccc1` the rescue activity (ATP increase) was inactive: -28.5%.
For `CCC1(CC)C(=O)NC(=O)NC1=Nc1cccc(OC)c1`, the rescue activity (ATP increase) was inactive: 7.77%.
For `O=C(CCc1ccccc1)Nc1ccc(N2CCOCC2)c(Cl)c1`, the rescue activity (ATP increase) was inactive: -43.2%.
With `C[C@@H]1CN([C@H](C)CO)C(=O)c2cccc(NC(=O)Nc3ccc4c(c3)OCO4)c2O[C@@H]1CN(C)S(=O)(=O)c1ccc(Cl)cc1` the rescue activity (ATP increase) was inactive: -5.65%.
For `COc1ccc(S(=O)(=O)Nc2ccc3c(c2)C(=O)N([C@H](C)CO)C[C@H](C)[C@@H](CN(C)S(=O)(=O)c2ccc(F)cc2)OCCCC[C@H](C)O3)cc1`, the rescue activity (ATP increase) was inactive: -6.4%.
In the case of `C[C@@H]1CCCCO[C@@H](CN(C)S(=O)(=O)c2cccs2)[C@@H](C)CN([C@H](C)CO)C(=O)c2cc(NC(=O)Nc3ccc(F)cc3)ccc2O1`, the rescue activity (ATP increase) is reported as inactive: -23.7%.
For `CCN(CC)C(=O)c1ccc(NS(=O)(=O)c2ccccc2)cc1`, the rescue activity (ATP increase) was inactive: 0.963%.
With `C[C@@H]1CN([C@@H](C)CO)C(=O)Cc2cc(N(C)C)ccc2O[C@H]1CN(C)Cc1ccc(C(F)(F)F)cc1` the rescue activity (ATP increase) was inactive: -0.166%.
In the case of `O=C(C[C@H]1CC[C@H]2[C@@H](COC[C@H](O)CN2Cc2ccc(Oc3ccccc3)cc2)O1)N1CCCCC1`, the rescue activity (ATP increase) is reported as inactive: -0.632%.
With `Cc1noc(C)c1S(=O)(=O)Nc1cccc2c1O[C@H](CN(C)C(=O)Nc1ccccc1)[C@H](C)CN([C@@H](C)CO)C2=O` the rescue activity (ATP increase) was inactive: -7.69% [at 21 µM].
For `O=C(NCc1ccncc1)Nc1ccccc1Cl`, the rescue activity (ATP increase) was inactive: 3.84%.
For `CN1C[C@H]2[C@@H](c3ccccc31)[C@H](CO)N2Cc1ccccc1`, the rescue activity (ATP increase) was inactive: 1.69%.
With `COc1cc(CCC(=O)OCc2nnc(-c3ccccc3)o2)cc(OC)c1OC` the rescue activity (ATP increase) was inactive: 71.2%.
In the case of `CN1C[C@H]2[C@@H](c3ccccc31)[C@@H](CO)N2Cc1ccccc1Cl`, the rescue activity (ATP increase) is reported as inactive: 12.6%.
With `COc1ccc(-c2n[nH]c(C)c2-c2cc(OC)ccc2O)cc1` the rescue activity (ATP increase) was inactive: 7.92%.
For `CN1CCN(c2ccc(NC(=S)NC(=O)c3cccc4c(Br)cccc34)cc2)CC1`, the rescue activity (ATP increase) was inactive: 12.4%.
With `CC(C)C[C@@H](CO)N(Cc1ccccc1)S(=O)(=O)N(Cc1ccccc1)[C@H](CO)CC(C)C` the rescue activity (ATP increase) was inactive: -56.9%.
With `C[C@@H]1CCCCO[C@H](CN(C)S(=O)(=O)c2ccc(F)cc2)[C@H](C)CN([C@@H](C)CO)C(=O)c2cc(NS(C)(=O)=O)ccc2O1` the rescue activity (ATP increase) was inactive: -17.7%.
In the case of `C[C@H](CO)N1C[C@H](C)[C@H](CN(C)C(=O)NC2CCCCC2)OCCCC[C@H](C)Oc2ccc(NC(=O)Nc3cccc4ccccc34)cc2C1=O`, the rescue activity (ATP increase) is reported as inactive: 10%.
With `Clc1ccc(Cn2ncc3c(N4CCCCC4)ncnc32)c(Cl)c1` the rescue activity (ATP increase) was inactive: 27.3%.
With `C[C@H]1CN([C@@H](C)CO)C(=O)c2cccc(NC(=O)Nc3ccc4c(c3)OCO4)c2O[C@H]1CN(C)S(=O)(=O)c1cccs1` the rescue activity (ATP increase) was inactive: 14.8%.
For `Cc1noc(C)c1NC(=O)Nc1ccc2c(c1)C(=O)N([C@H](C)CO)C[C@@H](C)[C@H](CN(C)C(=O)Nc1cccc3ccccc13)O2`, the rescue activity (ATP increase) was inactive: 14%.
With `CCOc1ccc(Br)cc1-c1noc(-c2cccs2)n1` the rescue activity (ATP increase) was inactive: 34.4%.
For `Cc1ccc(S(=O)(=O)Nc2ccc3c(c2)C(=O)N([C@@H](C)CO)C[C@H](C)[C@H](CN(C)Cc2ccc(C(F)(F)F)cc2)O3)cc1`, the rescue activity (ATP increase) was inactive: 28.9%.
For `COc1ccc(CN2[C@@H](CO)[C@@H]3c4ccccc4NC[C@@H]32)cc1`, the rescue activity (ATP increase) was inactive: -4.08% [at 21 µM].
In the case of `Cc1cccc(NC(=O)c2ccccc2C(=O)O)c1`, the rescue activity (ATP increase) is reported as inactive: -3.2%.
With `O=C(NCc1ccco1)C(c1ccccc1)N(C(=O)Cc1cccs1)c1ccccc1` (stereo not given) the rescue activity (ATP increase) was inactive: -1.07% [at 10 µM].
With `Cc1ccc2nc(SCC(=O)N(CC(C)C)c3c(N)n(CC(C)C)c(=O)[nH]c3=O)[nH]c2c1` the rescue activity (ATP increase) was inactive: 8.11%.
In the case of `COc1ccc(C=O)cc1CSc1nnc(COc2cccc3cccnc23)o1`, the rescue activity (ATP increase) is reported as inactive: 6.76%.
With `CCCC(=O)NC(=S)Nc1cccc(C(C)=O)c1` the rescue activity (ATP increase) was inactive: -8.31%.
For `Cc1ccc(S(=O)(=O)Nc2ccc3c(c2)C(=O)N([C@@H](C)CO)C[C@@H](C)[C@@H](CN(C)Cc2ccc(Cl)c(Cl)c2)O3)cc1`, the rescue activity (ATP increase) was inactive: 11.3%.
For `N#CC1CN(C(c2ccccc2)c2ccccc2)C1`, the rescue activity (ATP increase) was inactive: 10.8%.
In the case of `CCOc1cc(CNCc2ccncc2)cc(Br)c1OCc1ccccc1F`, the rescue activity (ATP increase) is reported as inactive: -28%.
With `O=C(NC1Cc2ccccc2C1)[C@H]1[C@H](CO)[C@H]2Cn3c(cccc3=O)[C@H]2N1C(=O)c1cnccn1` the rescue activity (ATP increase) was inactive: -1.75%.
With `CC(=O)CSc1nc(C(F)(F)F)cc(=O)n1-c1ccccc1` the rescue activity (ATP increase) was inactive: 19%.
For `CC1(C)Cc2cccc(OCC(N)=O)c2O1`, the rescue activity (ATP increase) was inactive: 37.2%.
For `CCOC(=O)c1sc(Nc2nc3c(OC)cccc3s2)nc1C`, the rescue activity (ATP increase) was inactive: 7.42%.
In the case of `COc1ccc(S(=O)(=O)Nc2ccc3c(c2)C(=O)N([C@H](C)CO)C[C@@H](C)[C@H](CN(C)S(=O)(=O)c2cccs2)OCCCC[C@H](C)O3)cc1`, the rescue activity (ATP increase) is reported as inactive: -3.23%.
In the case of `Cc1ccc(CNC(=O)Cn2cccc2C(=O)c2ccccc2)cc1`, the rescue activity (ATP increase) is reported as inactive: 20.5%.
For `O=C(O)COc1ccc2c3c(c(=O)oc2c1)CCC3`, the rescue activity (ATP increase) was inactive: 0.208%.
In the case of `COc1ccc(C#Cc2cnc3c(c2)C(=O)N([C@H](C)CO)C[C@H](C)[C@@H](CN(C)C(=O)Nc2cccc(OC)c2)O3)cc1`, the rescue activity (ATP increase) is reported as inactive: 32.5%.
In the case of `C[C@H]1CN([C@@H](C)CO)C(=O)c2cc(NC(=O)Nc3ccc(C(F)(F)F)cc3)ccc2O[C@H]1CN(C)Cc1ccc(C(=O)Nc2ccccc2N)cc1`, the rescue activity (ATP increase) is reported as inactive: 44.6% [at 18 µM].
For `C/C(=N/NC(=O)c1cc(Cl)ccc1O)C12CC3CC(CC(C3)C1)C2`, the rescue activity (ATP increase) was inactive: -41.6%.
For `O=C(Nc1ccccc1Cl)NC1(C(=O)N2CCCCC2)CCCCC1`, the rescue activity (ATP increase) was inactive: 17%.
In the case of `CCN1CCN(c2ccc(NC(=O)Cc3ccccc3)cc2)CC1`, the rescue activity (ATP increase) is reported as inactive: -4.12%.
In the case of `CCOC(=O)CN(C(=O)CSc1nnc2c(n1)[nH]c1ccc(F)cc12)c1ccccc1`, the rescue activity (ATP increase) is reported as inactive: -6.28%.
With `C[C@H](CO)N1C[C@H](C)[C@H](CN(C)S(=O)(=O)c2ccc(Cl)cc2)OCCCC[C@H](C)Oc2ccc(NS(C)(=O)=O)cc2C1=O` the rescue activity (ATP increase) was inactive: 5.39%.
For `C[C@H]1CN([C@@H](C)CO)S(=O)(=O)c2ccc(C#CC3CCCCC3)cc2O[C@H]1CN(C)C(=O)Cc1ccncc1`, the rescue activity (ATP increase) was inactive: -18.7%.
For `CC(C)COc1nc2ccccc2c(=O)n1OCC(=O)O`, the rescue activity (ATP increase) was inactive: -5.81%.
For `Cc1ccc(S(=O)(=O)N(C)C[C@@H]2Oc3ncc(C#Cc4cccc(F)c4)cc3C(=O)N([C@H](C)CO)C[C@@H]2C)cc1`, the rescue activity (ATP increase) was inactive: 25.8%.
With `COc1ccc(NC(=O)Nc2cccc3c2O[C@@H](CN(C)C(=O)Nc2cccc4ccccc24)[C@@H](C)CN([C@H](C)CO)C3=O)cc1` the rescue activity (ATP increase) was inactive: 4.56%.
